No constants are given. Whether binding was seen depends on the method and setting. A result given as binding can be weak or reduced; the word gives no strength.
Tests used:
[1] = target: eL22 (S. cerevisiae (endogenous in BY4741-derived yeast)); assay: cryo-EM structure
[2] = target: eL24 (S. cerevisiae (endogenous in BY4741-derived yeast)) (UniProt P04449); assay: cryo-EM structure

By UniProt entry, the sequences of proteins in these tests, tags left out. Where a name states a change or a piece, a line headed by the entry shows the natural chain unless it says otherwise.
UniProt P04449: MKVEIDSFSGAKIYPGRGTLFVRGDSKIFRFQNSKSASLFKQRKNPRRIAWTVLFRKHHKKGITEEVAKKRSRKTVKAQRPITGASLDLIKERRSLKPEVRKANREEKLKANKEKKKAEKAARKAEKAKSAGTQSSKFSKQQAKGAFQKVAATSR

B1: Reh1 (protein, UniProt Q06709 1-432)
chain: MSSTFFTCNCCVIQFKTSDLQRYHMKTEWHRYNLKRRIANLPPIGAEQFAEKLQISEKEQAENQVDEFGFPVLKPVMNQSNALPQKQKKPIKSKRGRKVGTNLLKRKDRDIAKEKQNRSVSPSGSISSQLSNLTVGTENTNTDYGEDTVSEYGFTSDSNYEYATSDEELDIADKPSDKENEKITITECIYCGKDNKEVERNVKHMFSEHGLFIPERSYLIDLNGLLEFLIKMIVIDHNCLCCNFHGSGLESIRAHMASKRHCRLPYETKEERQLFAPFYDFTYDDHSISKNLQNDRAITSKLSSVYGAKNDEEDGEVDITLVSSENDINANYTTVSIDESGLELTLPTGARLGHRAGQRYYRQNLPSQPNPNESRRTITAADRRMVSGVTEKQYKKGMKKMQQLEKNAINTQIRREIKRVNFQTHYRDELLQ
binding [1]: binds | binding [2]: binds
